According to publication PMC10172768:
No constants are given. Whether binding was seen depends on the method and setting. Binding seen in cells or lysates may run through a third protein. Some entries that bind do so weakly or less than the wild type. Sequences can lack the tags named with a protein.

T1: Psm1-cYFP (S. pombe) (UniProt O94383)
T1 sequence: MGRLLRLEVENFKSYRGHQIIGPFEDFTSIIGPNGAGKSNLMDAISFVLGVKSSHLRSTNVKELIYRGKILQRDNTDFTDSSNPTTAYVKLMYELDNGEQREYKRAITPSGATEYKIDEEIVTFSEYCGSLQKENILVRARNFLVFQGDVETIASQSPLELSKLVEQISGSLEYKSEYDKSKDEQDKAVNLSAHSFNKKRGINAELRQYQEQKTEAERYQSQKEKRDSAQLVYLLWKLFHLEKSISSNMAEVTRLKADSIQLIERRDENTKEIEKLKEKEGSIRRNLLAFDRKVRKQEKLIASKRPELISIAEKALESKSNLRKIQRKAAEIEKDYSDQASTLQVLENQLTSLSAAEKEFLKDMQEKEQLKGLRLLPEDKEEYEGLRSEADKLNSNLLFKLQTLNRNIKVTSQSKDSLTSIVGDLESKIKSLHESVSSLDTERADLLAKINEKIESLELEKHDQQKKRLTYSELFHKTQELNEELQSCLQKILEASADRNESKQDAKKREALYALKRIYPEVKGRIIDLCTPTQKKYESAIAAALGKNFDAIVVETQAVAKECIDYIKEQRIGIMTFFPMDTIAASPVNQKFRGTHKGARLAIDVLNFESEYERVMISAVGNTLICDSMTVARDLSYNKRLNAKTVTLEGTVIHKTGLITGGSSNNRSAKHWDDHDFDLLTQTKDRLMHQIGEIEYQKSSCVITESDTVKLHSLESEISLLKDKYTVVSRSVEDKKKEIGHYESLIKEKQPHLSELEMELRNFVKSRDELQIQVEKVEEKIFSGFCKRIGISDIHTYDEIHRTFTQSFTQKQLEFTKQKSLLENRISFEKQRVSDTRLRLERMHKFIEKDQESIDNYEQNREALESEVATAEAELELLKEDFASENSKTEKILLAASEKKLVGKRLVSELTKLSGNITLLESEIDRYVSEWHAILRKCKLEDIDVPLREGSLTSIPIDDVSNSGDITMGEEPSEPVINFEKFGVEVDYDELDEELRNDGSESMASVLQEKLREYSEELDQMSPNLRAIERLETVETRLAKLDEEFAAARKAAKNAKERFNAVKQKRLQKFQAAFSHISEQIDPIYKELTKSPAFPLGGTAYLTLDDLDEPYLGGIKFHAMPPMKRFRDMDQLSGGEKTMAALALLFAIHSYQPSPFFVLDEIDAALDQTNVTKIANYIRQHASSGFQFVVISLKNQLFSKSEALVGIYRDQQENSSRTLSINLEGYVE

T2: Psm1-nYFP (S. pombe) (UniProt O94383)
T2 sequence: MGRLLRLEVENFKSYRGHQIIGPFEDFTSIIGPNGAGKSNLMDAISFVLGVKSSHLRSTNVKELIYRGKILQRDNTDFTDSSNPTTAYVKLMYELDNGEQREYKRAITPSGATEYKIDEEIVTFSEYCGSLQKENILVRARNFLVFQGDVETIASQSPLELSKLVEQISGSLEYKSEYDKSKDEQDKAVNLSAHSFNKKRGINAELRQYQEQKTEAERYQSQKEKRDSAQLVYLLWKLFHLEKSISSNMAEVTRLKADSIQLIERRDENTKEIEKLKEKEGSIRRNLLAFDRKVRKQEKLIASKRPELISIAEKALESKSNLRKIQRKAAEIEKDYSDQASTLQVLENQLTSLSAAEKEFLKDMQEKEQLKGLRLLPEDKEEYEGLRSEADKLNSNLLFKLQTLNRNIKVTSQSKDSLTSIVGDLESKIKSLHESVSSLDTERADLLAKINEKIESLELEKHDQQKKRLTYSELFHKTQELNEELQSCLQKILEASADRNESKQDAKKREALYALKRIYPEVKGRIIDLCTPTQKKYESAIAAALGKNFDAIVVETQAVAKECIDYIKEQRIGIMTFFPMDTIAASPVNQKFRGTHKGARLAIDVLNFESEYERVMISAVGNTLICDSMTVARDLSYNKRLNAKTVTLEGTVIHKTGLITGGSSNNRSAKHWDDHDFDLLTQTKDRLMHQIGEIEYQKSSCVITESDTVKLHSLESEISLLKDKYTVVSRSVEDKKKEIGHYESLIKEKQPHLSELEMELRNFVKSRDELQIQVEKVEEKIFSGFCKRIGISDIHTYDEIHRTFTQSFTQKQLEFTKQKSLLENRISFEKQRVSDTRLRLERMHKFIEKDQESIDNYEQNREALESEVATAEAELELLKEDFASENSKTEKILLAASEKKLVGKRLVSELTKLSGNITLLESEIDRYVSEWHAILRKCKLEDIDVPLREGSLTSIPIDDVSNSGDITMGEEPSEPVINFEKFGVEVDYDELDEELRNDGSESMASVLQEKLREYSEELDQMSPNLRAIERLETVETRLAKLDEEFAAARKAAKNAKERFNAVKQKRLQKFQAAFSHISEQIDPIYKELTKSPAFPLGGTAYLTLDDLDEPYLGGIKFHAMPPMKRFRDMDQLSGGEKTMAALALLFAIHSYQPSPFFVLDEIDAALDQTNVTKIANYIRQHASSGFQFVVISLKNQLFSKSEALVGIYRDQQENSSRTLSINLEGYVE


Assays:
Psm1-cYFP (S. pombe) = molecular target: T1, Psm1-cYFP (S. pombe); assay: split reporter; Venus YFP halves fused to the C-termini of Rad21 and Psm1 at native loci; spinning-disk confocal microscopy of living S. pombe cells; also followed through mitosis, in cdc25-22, cut9-665 and cdc10-129 backgrounds, under nitrogen starvation and with hydroxyurea
Psm1-nYFP (S. pombe) = molecular target: T2, Psm1-nYFP (S. pombe); assay: as above

binding (Psm1-cYFP (S. pombe))	binding (Psm1-nYFP (S. pombe))	Binder
binds	–	Rad21-nYFP (protein, UniProt P30776 1-628) MFYSEAILSKKGPLAKVWLAAHWEKKLSKVQTLHTSIEQSVHAIVTEETAPMALRLSGQLMLGVVRIYSRKARYLLEDCTEALMRLKMSFQPGQVDMIEPATALQSLKGKDAVTQSANLTLPETITEFDLLVPDSTFDFQWSQLLRTPSRSSNTLELHSLPISSSPSFPSSQLSIEAGRNAQVESGFSLGESFAHVGNDMQFHLPISNSGAATPRSVHSDNQSQISIEVGRDAPAAAATDLSGIIGPQMTKSPASSVTHFSTPSMLPIGGTSLDDELLAPVDDLNLDLGLDDLLGDEQGANAPAIEADEQAETSSIHLPSDIMEDDSSRPAAAGVEEGQVVESATAPQQEKINPQKTVRRQRAIIDPVTELSSKQMKKQLADTSSITSPLCLNTSSIVFNATVNFTRNGKFNTSIFSSNLNPKVNELLQADFKQAILRKRKNESPEEVEPAKHQRTDTSTENQETAEVLDPEEIAAAELANITEAAIATLPQETVVQPEGEAPELGSPMGFPVTALESADDSLFDAPPVMLDEADLLGSERLDSSVSEALPSSQTAKDSLRNKWDPYTEGEKVSFQTLSAGCNREEAVQLFFDVLVLATKDVISVKQDVAIQNEITLTAKRGMLLSSL
–	binds	Rad21-cYFP (protein, UniProt P30776 1-628) MFYSEAILSKKGPLAKVWLAAHWEKKLSKVQTLHTSIEQSVHAIVTEETAPMALRLSGQLMLGVVRIYSRKARYLLEDCTEALMRLKMSFQPGQVDMIEPATALQSLKGKDAVTQSANLTLPETITEFDLLVPDSTFDFQWSQLLRTPSRSSNTLELHSLPISSSPSFPSSQLSIEAGRNAQVESGFSLGESFAHVGNDMQFHLPISNSGAATPRSVHSDNQSQISIEVGRDAPAAAATDLSGIIGPQMTKSPASSVTHFSTPSMLPIGGTSLDDELLAPVDDLNLDLGLDDLLGDEQGANAPAIEADEQAETSSIHLPSDIMEDDSSRPAAAGVEEGQVVESATAPQQEKINPQKTVRRQRAIIDPVTELSSKQMKKQLADTSSITSPLCLNTSSIVFNATVNFTRNGKFNTSIFSSNLNPKVNELLQADFKQAILRKRKNESPEEVEPAKHQRTDTSTENQETAEVLDPEEIAAAELANITEAAIATLPQETVVQPEGEAPELGSPMGFPVTALESADDSLFDAPPVMLDEADLLGSERLDSSVSEALPSSQTAKDSLRNKWDPYTEGEKVSFQTLSAGCNREEAVQLFFDVLVLATKDVISVKQDVAIQNEITLTAKRGMLLSSL
